The target in the experiment is T1, human Nup93 from HeLa lysate (human (endogenous in HeLa)) (UniProt Q8N1F7).
T1 sequence: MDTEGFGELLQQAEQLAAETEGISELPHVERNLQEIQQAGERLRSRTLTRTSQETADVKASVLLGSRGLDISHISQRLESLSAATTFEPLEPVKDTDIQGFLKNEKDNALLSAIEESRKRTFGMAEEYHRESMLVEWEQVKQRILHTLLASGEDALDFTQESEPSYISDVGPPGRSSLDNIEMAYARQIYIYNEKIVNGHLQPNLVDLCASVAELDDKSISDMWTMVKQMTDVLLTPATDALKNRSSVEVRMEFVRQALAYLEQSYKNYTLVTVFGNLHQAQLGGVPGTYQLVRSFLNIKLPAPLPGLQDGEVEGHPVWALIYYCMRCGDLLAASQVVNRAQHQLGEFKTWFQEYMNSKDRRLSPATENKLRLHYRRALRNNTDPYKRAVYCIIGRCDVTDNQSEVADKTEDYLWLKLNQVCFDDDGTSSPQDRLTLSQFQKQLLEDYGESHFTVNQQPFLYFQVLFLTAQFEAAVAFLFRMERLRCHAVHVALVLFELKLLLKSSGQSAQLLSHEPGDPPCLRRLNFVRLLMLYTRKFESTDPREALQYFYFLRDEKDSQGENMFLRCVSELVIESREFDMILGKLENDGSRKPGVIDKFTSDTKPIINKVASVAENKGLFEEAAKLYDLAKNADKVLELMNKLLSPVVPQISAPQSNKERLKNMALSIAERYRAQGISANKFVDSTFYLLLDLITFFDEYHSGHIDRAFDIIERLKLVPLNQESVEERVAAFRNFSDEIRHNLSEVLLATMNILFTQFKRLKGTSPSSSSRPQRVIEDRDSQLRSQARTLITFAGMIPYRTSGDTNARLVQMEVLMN
The experiment is described as follows: pull-down.

Protein sequences, listed by entry. Tags and fused reporters are not part of them.
UniProt Q92621: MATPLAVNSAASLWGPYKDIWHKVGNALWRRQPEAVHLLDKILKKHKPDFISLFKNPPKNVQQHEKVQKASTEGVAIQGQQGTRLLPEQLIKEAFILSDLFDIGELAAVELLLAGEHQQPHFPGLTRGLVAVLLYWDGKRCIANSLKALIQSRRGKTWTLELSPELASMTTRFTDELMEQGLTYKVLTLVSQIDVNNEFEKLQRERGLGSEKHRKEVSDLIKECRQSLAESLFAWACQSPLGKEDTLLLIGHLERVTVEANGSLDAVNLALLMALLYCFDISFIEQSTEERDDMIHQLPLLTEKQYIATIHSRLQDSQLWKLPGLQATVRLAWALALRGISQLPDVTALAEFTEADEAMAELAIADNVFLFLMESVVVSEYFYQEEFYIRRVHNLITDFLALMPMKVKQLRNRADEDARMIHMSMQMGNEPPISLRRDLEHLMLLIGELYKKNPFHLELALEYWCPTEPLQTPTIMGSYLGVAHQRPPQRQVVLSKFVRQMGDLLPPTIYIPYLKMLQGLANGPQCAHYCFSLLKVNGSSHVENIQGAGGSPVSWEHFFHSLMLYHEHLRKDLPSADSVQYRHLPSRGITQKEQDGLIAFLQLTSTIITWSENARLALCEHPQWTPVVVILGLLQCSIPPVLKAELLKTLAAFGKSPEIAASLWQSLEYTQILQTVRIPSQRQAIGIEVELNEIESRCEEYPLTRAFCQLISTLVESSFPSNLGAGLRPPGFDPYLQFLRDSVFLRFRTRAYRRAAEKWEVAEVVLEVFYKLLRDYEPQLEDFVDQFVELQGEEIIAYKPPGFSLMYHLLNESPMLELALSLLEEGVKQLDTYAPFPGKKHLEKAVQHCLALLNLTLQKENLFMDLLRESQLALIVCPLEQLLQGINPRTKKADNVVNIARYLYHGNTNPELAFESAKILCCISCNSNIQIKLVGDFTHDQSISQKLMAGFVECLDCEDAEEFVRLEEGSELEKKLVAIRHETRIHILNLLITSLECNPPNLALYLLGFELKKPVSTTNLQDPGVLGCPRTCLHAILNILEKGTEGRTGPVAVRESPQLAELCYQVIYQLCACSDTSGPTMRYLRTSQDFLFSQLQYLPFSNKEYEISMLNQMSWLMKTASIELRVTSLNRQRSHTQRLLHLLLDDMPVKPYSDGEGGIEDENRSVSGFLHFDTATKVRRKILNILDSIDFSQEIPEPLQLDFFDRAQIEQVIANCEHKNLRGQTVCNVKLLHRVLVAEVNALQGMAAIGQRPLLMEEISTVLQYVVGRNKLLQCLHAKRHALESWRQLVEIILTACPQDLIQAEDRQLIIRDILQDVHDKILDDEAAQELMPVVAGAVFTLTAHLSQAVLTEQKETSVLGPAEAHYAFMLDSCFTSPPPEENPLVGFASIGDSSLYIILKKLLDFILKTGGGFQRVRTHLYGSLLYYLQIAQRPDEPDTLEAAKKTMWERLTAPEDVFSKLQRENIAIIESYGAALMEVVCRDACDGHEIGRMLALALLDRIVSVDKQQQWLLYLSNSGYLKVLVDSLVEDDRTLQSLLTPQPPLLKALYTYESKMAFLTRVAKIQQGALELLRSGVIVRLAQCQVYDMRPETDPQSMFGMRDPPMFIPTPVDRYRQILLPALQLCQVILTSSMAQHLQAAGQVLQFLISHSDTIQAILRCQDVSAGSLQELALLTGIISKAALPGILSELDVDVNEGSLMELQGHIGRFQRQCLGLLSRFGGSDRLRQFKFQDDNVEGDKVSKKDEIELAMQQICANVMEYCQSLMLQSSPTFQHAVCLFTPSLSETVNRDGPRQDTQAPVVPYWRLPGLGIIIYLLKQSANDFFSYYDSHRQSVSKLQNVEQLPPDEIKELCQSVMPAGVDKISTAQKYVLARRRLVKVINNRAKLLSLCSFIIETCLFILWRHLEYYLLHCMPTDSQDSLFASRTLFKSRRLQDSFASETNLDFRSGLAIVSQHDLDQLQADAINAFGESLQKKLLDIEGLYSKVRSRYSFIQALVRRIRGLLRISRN

These are yes or no findings as the source states them, for the method shown. Binding seen in cells or lysates may run through a third protein. Some binding calls cover weakened binding; strength is not graded here.

In paper doi:10.1101/2023.09.12.557426 one finds binding data, which are given here for one substance.

“human Nup205 from HeLa lysate (from UniProt Q92621 1-2012)”: the binding entry is “binds”.
